The labels stand for the following.
B1: tRNA (parent)
chain: GUUCCGUUGGCGUAAUGGUAACGCGUCUCCCUCCUAAGGAGAAGACUGCGGGUUCGAGUCCCGUACGGAACG

Variants at the background level are over-represented here.

The variants in the series derive from B1. The series is described as follows: yeast fitness relative to wild type (ratio to wild type); higher = fitter; tRNA-Arg(CCU), competitive growth, 37 C, YPD. Put shortly:
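Amplicons of the tRNA-Arg(CCU) gene were sequenced, 100-nucleotide paired-end, from the start population and from each end population of a pooled yeast competition. The competition, in six parallel replicates, lasted 24 hours in YPD at 37°C. Fitness relative to wild type was calculated from changes in genotype frequencies. Genotypes had to have ≥ 100 starting reads, and estimates < 0.5 were set to 0.5.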
For the variant GUUGCGUUGGCGUAAUGCUAACGCGUCUCCCUCCUAAGGAGACGACUGCGGGAUCGAGUCCCGUACGGAACG, the yeast fitness was no more than 0.5.

Turning to GUUCCGUUGGCGUAAUGGUAACGCGUCUCCCUCCUAAGGAGAAGACUGCAGGUUCGAGACCCGUACCGAACG, the yeast fitness was no more than 0.5. In the case of GUUCCGUCGGCGUAAUGGUAACGCGUCUCCCUCCUAAGGAGAAGUCUGCGGGUUCGAGUCCCGUUCGGAACG it was 0.709. In the case of GUUCCGUUGGCGUAAUGGUAACGCGUCUCCCUUCUAAGGAGAGGACUGCGGGUUCGAGUCCCGUACCGAACG it was no more than 0.5; in that of GUUCGGUUAGCGUAAUGGUAACGCGUCUCCCUCCUAAGGAGAAGACUGCGGGUUCGAGUCUCGUACGGAACG, no more than 0.5; in that of GAUCCGUUGGCGUAAUGGUACCGCGUCUUCCUCCUAAGGAGAAGACUGCGGGUUCGAGUCCCGUACGGAACG, no more than 0.5.

Turning to GUUCCGAUGGCGUAAUGGUAACGCGUCUCCUUCCUAAGGAGAAGACUGCGGGUUCGAGUCCCGUACGGAACG, the yeast fitness is 0.683.

As to GUUCCGUUGGCGUCAUGGUAACGCAUCUCCCUCCUAAGGAGAUGACUGCGGGUUCGAGUCCCGUACGGAACG, the yeast fitness was no more than 0.5.

Consider GUUCCGUUGGCGUGAUGGUAACGCGUCUCCCUCCUAAGGAGACGACUGCGGGUUGGAGUCCCGUACGGAACG, for which the yeast fitness was no more than 0.5. In the case of GAUCCGUUGGCGUAAUGGUAACGCGUCUCCUUCGUAAGGAGAAGACUGAAGGUUCGAGUCCCGUACGGAACG it was no more than 0.5; in that of GUUCCGUUGGCGUAAUGGUAACGCGUCUCCCUCCUAAGGAGAAGACUGCGCAUUCGAGGCCCGUACGGAACG, no more than 0.5. To GUUCCGUUGGCGUAAUGAUAUCGCGUCUCCCACCUAAGGAGAAGACUGCGGGUUCGAGUCCGGUGCGGAACG belongs no more than 0.5.

For GCUCCGUUGCCGUAAUGGUAACGCGUCUCCCUCCUAAGGAGAAGACUCCGGGUUCGAGUCCUGUACGCAACG, the yeast fitness is no more than 0.5.

On to GUUCCGUUGGCGUAAUGGUAACGCGUCUUGGUCCUAAGGAGAAGACUGCGGGUUCGAGUCCCGUCCGGAACG, for which the yeast fitness was no more than 0.5. To GUUCCGUUGGCGUAAUGGUAACGCAUCUCCCUCCUAAGGAGAAGACUGCGGUUUCGAGUCCCGUACGGAACG belongs 0.627; to GUUCCGUUGGCGUAACGGUAACGCGUCUCCCUCCUAAGGAGAGGACUGCGGGUUCGAGCCCCGUACGGAACG, 0.609; to GUUCCGUUGGCGUAAUGGUAACGCGUCUCCUUCCUAAGAAGAAAACUGCGGGUUCGAGUCUCGUACGCAACG, no more than 0.5.

With GGUCCGUUGGCGUAAUGGUAACGCGUCUCCCUACUAAGGAGAAGACUGGGGGUUCGAGUCCCGUACCGAACG, the yeast fitness was no more than 0.5. In the case of GUUCCGUUGGCGUAAUGGUAACGCGUCUCUCUCCUAAGAAGAAGACUGCGGGUUCGAGUGCCGUACGGAACG it was 0.57; in that of GUUCCGUUGGCGUAAUGGUAACGCGUCUCCCUCCUACGGAGAAGACUGCGGGUUCAAGACCCGUACGGAACG, no more than 0.5. In the case of GAUCCGUUGGCGUAAUGGUAACGCGUCUCCCUCCUAAGGAGAAGACUGCGGGUUCGAGUCUCGUACGGAACG it was 0.768; in that of GUUUCGUUGGCGUAAUGGUAAAGCGUCUCCCUCCUAAGGAGAAGUCUGCGGGUUCGAGUCCCGUAUGGAACG, no more than 0.5; in that of GUUUCAUUGGCGCAAUGGUAACGCGUCCCCCUCCUAAGGAGAAGACUGCGGGUUCGAGUCCCGUACGGAACG, 0.616. To GUUCCGUUAGCGUAAUGGUAACGUGUCUCCCGCCUAAGGAGAAGACUGCGGGUUCGAGUCCCGUACGGAACG belongs no more than 0.5; to GUUCCGUUGGCGUAAUGGUAACGCGUCUCCCUCCUAAGGAGGGGACUGCGGGUUCGAGUCCCGAACGCAACG, no more than 0.5. As to GUUCCGUUGGCGUAAUGGUAACGCGUCUCCCGCCUAAAGAGAAGACUGCGGGUUCCAGUCCCGUACGGAACG, the yeast fitness was no more than 0.5. In the case of GUUCGGUUGAGGUAAGGGUAACGCGUCUCCCUGCUAAGGAGAAGACUGCGGGAUCGAGACCCGUACGGAACG it was no more than 0.5; in that of GUUCCAUUGGUGUAAUGGUAACGCGUCUCCCUCCUAAGGAGAAGACUGCGGGUUCGAGUUACGUACGGAACG, no more than 0.5. In the case of GUUCCGUUGCCGUAAUGGUAACGCGACUCCCUCGUAAGGAGAAGACUGCGGGAUCGAGUCCCGUUCGGAACG it was no more than 0.5. To GUUCCGUUGGCGUAAUGGUAACGCGUCUACCUCCUAAGGAGAAGACUGCCGGUUCGAGUCCCGCACGGAACG belongs no more than 0.5. As for GUUCCGUUGGCGUAAUGGUAACGCGUCUCCCCACUAAGGAGAAGACUGCGGGUUCGAGUCCCGUACGGAACG, the yeast fitness was found to be 0.628. In the case of GUUCCGUUGGCGUAAUGGUAACACGUCUCCCUCCUAAGGAGAAGAUUGCGGGUUCGAGUCCCGUCCGGAACG it was 0.54; in that of GUUCCGUUGGCGUAAUGGUAACGCGUCUCCUGGCUAAGGAGAAGACUGCGGGUUCGACUCCCGUACGGAACG, no more than 0.5; in that of GUUCCGUUGGCGUAAUGGUAACGCGUCUCCCUCCUCAGGAGAAGAUUGCGGGAUCGAGUCCCGUACGGAACG, 0.639. Regarding GUUCCGUUGGCGUAAUGGUAACGCGUCUCCGUCCUCAGGAGAAGACUGCGGGUUCGAGUCCCGUACGAACCG, the yeast fitness is no more than 0.5. In the case of GUUCCGUUGGCAUACUGGUAACGCGUCUCCCUCCUUAGGAGAAGACUGCGGGUUCGAGUCCCGUCCGGAACG it was no more than 0.5; in that of GUUCCGUUGGCCUAAUGGUAACGCGUCUCCCUCCUAAGGACAAGACUGCGGGUUCGGGUCCCGUACGCAACG, no more than 0.5.

These data come from the RNAGym collection of RNA variant scans (doi:10.1126/science.aae0568).
